This continues a long series; more values of the same kind are listed elsewhere.
Tested on: peripheral blood mononuclear cells (PBMC)
Experiment: Microarray analysis (3), dose-dependent intron expression in PBMC at 3, 10, 30 nM, Table 5
Assay type: cell-based, human
Protocol: PBMC was suspended in RPMI1640 medium (containing 10% FBS, penicillin, and streptomycin) to 5×10^6 cells/ml and 1 ml of the suspension was plated per well of a 24-well plate. Immediately, 111 μl of 10 times-concentrated (8E,12E,14E)-7-((4-cycloheptylpiperazin-1-yl)carbonyl)oxy-3,6,16,21-tetrahydroxy-6,10,12,16,20-pentamethyl-18,19-epoxytricosa-8,12,14-trien-11-olide was added to the well (six wells per each concentration tested). The cells were then cultured in an incubator with 5% carbon dioxide gas at 37° C. Three hours later, the supernatant was collected and centrifuged at 1500 rpm for five minutes. TRI reagent (SIGMA) (1 ml) was added to each well of the plate from which the supernatant was removed to harvest the cells, which was added to the centrifuged pellet to dissolve. RNA was purified in accordance with the protocol of TRI reagent. RNA was further purified using RNeasy (QIAGEN) and, in accordance with the protocol, DNaseI was added to the samples during the procedure. Absorbance at 260 nm was measured to quantify an amount of RNA.
Ribosomal RNA was removed from 1 μg of each total RNA of control cells (n=3) and cells with the treatment (n=3) using RiboMinus Human/Mouse Transcriptome Isolation Kit (Invitrogen). Single stranded cDNA synthesis, double stranded cDNA synthesis, cRNA synthesis, second single stranded cDNA synthesis, cDNA fragmentation, and cDNA labeling in order were carried out for total RNA from which ribosomal RNA was removed, using GeneChip Whole Transcript Sense Target Labeling and Control Reagents (Affymetrix) to make a cDNA probe. Subsequently, the cDNA probe was used for hybridization with Human Exon 1.0 ST Array (Affymetrix). The array was washed and stained, and luminescence intensity was measured by a scanner.
The expression level of the probe set and the gene was quantified by using Expression Console Ver. 1.0 (Affymetrix) with Summarization Method and Normalization Method being set to “Median polish as used in RMA” and “None”, respectively. The expression level of the probe was normalized with that of the gene.
Probe sets showing that the normalized change in the level expression of the probe set in the group with the treatment at 30 nM was more than 5 times; the expression level of the probe set and the gene in the group with the treatment at 30 nM was more than 100; and probe set annotation was “extended, full, free”, were picked out. Regression analysis was performed with the probe sets extracted for the control group, the group with the treatment at 3 nM, the group with the treatment at 10 nM, and the group with the treatment at 30 nM to determine a p and q value for the slope of regression formula. A gene containing the probe sets with the q value of less than 5% was determined as a candidate gene with increased expression level of the intron regions (Table 5).
In Table 5, for the gene evaluated, gene name (Gene Name), abbreviated name (Gene Symbol), accession number (Accession), alias name (Synonym), transcription cluster number in Human Exon 1.0 ST Array (Human Exon 1.0 ST Array Transcription Cluster ID), chromosome number (Chromosome), type of strand (Strand), start region (Start), stop region (Stop), and change in expression level per 1 nM (Fold Change/nM) were respectively shown.

SMILES: CCC(O)C(C)C1OC1CC(C)(O)/C=C/C=C(\C)C1OC(=O)CC(O)CCC(C)(O)C(OC(=O)N2CCN(C3CCCCCC3)CC2)/C=C/C1C (stereo not shown) [E7107, (8E,12E,14E)-7-((4-cycloheptylpiperazin-1-yl)carbonyl)oxy-3,6,16,21-tetrahydroxy-6,10,12,16,20-pentamethyl-18,19-epoxytricosa-8,12,14-trien-11-olide]
- Fold Change/nM (gene ABLIM1 introns, regression over control, 3, 10, 30 nM): 1.05 nM⁻¹
- Fold Change/nM (gene ACTG1 introns, regression over control, 3, 10, 30 nM): 1.05 nM⁻¹
- Fold Change/nM (gene ACTR3 introns, regression over control, 3, 10, 30 nM): 1.05 nM⁻¹
- Fold Change/nM (gene ANKRD15, intron expression, 3, 10, 30 nM): 1.06 nM⁻¹
- Fold Change/nM (gene AP1GBP1, intron expression, 3, 10, 30 nM): 1.06 nM⁻¹
- Fold Change/nM (gene APLP2, intron expression, 3, 10, 30 nM): 1.06 nM⁻¹
- Fold Change/nM (gene ARRDC2, intron expression, 3, 10, 30 nM): 1.06 nM⁻¹
- Fold Change/nM (gene ASH1L introns, regression over control, 3, 10, 30 nM): 1.05 nM⁻¹
- Fold Change/nM (gene ATP1B3, intron expression, 3, 10, 30 nM): 1.06 nM⁻¹
- Fold Change/nM (gene ATP2A2, intron expression, 3, 10, 30 nM): 1.06 nM⁻¹
- Fold Change/nM (gene ATP6V1H introns, regression over control, 3, 10, 30 nM): 1.05 nM⁻¹
- Fold Change/nM (gene ATP10D, intron expression, 3, 10, 30 nM): 1.06 nM⁻¹
- Fold Change/nM (gene BAZ2A introns, regression over control, 3, 10, 30 nM): 1.05 nM⁻¹
- Fold Change/nM (gene BCL2A1 introns, regression over control, 3, 10, 30 nM): 1.05 nM⁻¹
- Fold Change/nM (gene BCL10 introns, regression over control, 3, 10, 30 nM): 1.05 nM⁻¹
- Fold Change/nM (gene BDP1 introns, regression over control, 3, 10, 30 nM): 1.05 nM⁻¹
- Fold Change/nM (gene BIRC2, intron expression, 3, 10, 30 nM): 1.06 nM⁻¹
- Fold Change/nM (gene BIRC6, intron expression, 3, 10, 30 nM): 1.05 nM⁻¹
- Fold Change/nM (gene BRWD1, intron expression, 3, 10, 30 nM): 1.06 nM⁻¹
- Fold Change/nM (gene C1orf63, intron expression, 3, 10, 30 nM): 1.06 nM⁻¹
- Fold Change/nM (gene C11orf30, intron expression, 3, 10, 30 nM): 1.05 nM⁻¹
- Fold Change/nM (gene CAPN2 introns, regression over control, 3, 10, 30 nM): 1.05 nM⁻¹
- Fold Change/nM (gene CCNT2 // ACMSD introns, regression over control, 3, 10, 30 nM): 1.05 nM⁻¹
- Fold Change/nM (gene CHD1 introns, regression over control, 3, 10, 30 nM): 1.05 nM⁻¹
- Fold Change/nM (gene CKAP4, intron expression, 3, 10, 30 nM): 1.06 nM⁻¹
- Fold Change/nM (gene CNBP, intron expression, 3, 10, 30 nM): 1.05 nM⁻¹
- Fold Change/nM (gene CNNM3 introns, regression over control, 3, 10, 30 nM): 1.05 nM⁻¹
- Fold Change/nM (gene CNOT2, intron expression, 3, 10, 30 nM): 1.06 nM⁻¹
- Fold Change/nM (gene COL4A3BP introns, regression over control, 3, 10, 30 nM): 1.05 nM⁻¹
- Fold Change/nM (gene COQ2 introns, regression over control, 3, 10, 30 nM): 1.05 nM⁻¹
- Fold Change/nM (gene CPEB4, intron expression, 3, 10, 30 nM): 1.06 nM⁻¹
- Fold Change/nM (gene CSF1R introns, regression over control, 3, 10, 30 nM): 1.05 nM⁻¹
- Fold Change/nM (gene CSNK1A1, intron expression, 3, 10, 30 nM): 1.06 nM⁻¹
- Fold Change/nM (gene CTNNB1, intron expression, 3, 10, 30 nM): 1.06 nM⁻¹
- Fold Change/nM (gene CUL4A introns, regression over control, 3, 10, 30 nM): 1.05 nM⁻¹
- Fold Change/nM (gene CYP1B1, intron expression, 3, 10, 30 nM): 1.06 nM⁻¹
- Fold Change/nM (gene DDX5 introns, regression over control, 3, 10, 30 nM): 1.05 nM⁻¹
- Fold Change/nM (gene DERL1 introns, regression over control, 3, 10, 30 nM): 1.05 nM⁻¹
- Fold Change/nM (gene DHX15, intron expression, 3, 10, 30 nM): 1.06 nM⁻¹
- Fold Change/nM (gene DIAPH1 introns, regression over control, 3, 10, 30 nM): 1.05 nM⁻¹
- Fold Change/nM (gene EHD1 introns, regression over control, 3, 10, 30 nM): 1.05 nM⁻¹
- Fold Change/nM (gene EIF4G1 introns, regression over control, 3, 10, 30 nM): 1.05 nM⁻¹
- Fold Change/nM (gene ELOVL5 introns, regression over control, 3, 10, 30 nM): 1.05 nM⁻¹
- Fold Change/nM (gene EML4, intron expression, 3, 10, 30 nM): 1.06 nM⁻¹
- Fold Change/nM (gene FAM78A introns, regression over control, 3, 10, 30 nM): 1.05 nM⁻¹
- Fold Change/nM (gene FLJ36874 introns, regression over control, 3, 10, 30 nM): 1.05 nM⁻¹
- Fold Change/nM (gene FMNL1 introns, regression over control, 3, 10, 30 nM): 1.05 nM⁻¹
- Fold Change/nM (gene FMNL3 introns, regression over control, 3, 10, 30 nM): 1.05 nM⁻¹
- Fold Change/nM (gene FTHL7 // FTH1 // FTHL3 // FTHP1 // FTHL12 // FTHL11 // FTHL8 introns, regression over control, 3, 10, 30 nM): 1.05 nM⁻¹
- Fold Change/nM (gene GBF1 introns, regression over control, 3, 10, 30 nM): 1.05 nM⁻¹
- Fold Change/nM (gene GGA2 introns, regression over control, 3, 10, 30 nM): 1.05 nM⁻¹
- Fold Change/nM (gene GNAS, intron expression, 3, 10, 30 nM): 1.06 nM⁻¹
- Fold Change/nM (gene GSPT1 introns, regression over control, 3, 10, 30 nM): 1.05 nM⁻¹
- Fold Change/nM (gene HELZ introns, regression over control, 3, 10, 30 nM): 1.05 nM⁻¹
- Fold Change/nM (gene HS3ST3B1, intron expression, 3, 10, 30 nM): 1.06 nM⁻¹

From US20100021918A1, “METHOD FOR ASSAYING ACTION OF ANTITUMOR AGENT USING SPLICING DEFECTS AS INDEX” (Eisai R&D Management Co., Ltd., priority 2007, published 2010)
